Earlier results in patent US11749383B2, “Methods and systems of predicting agent induced effects in silico” (The Regents of the University of California, priority 2016, dated 2023).

System: native IKs
Details: read-out: IC50, IKs block; 500 ms; cited from earlier work

CCCCc1oc2ccccc2c1C(=O)c1cc(I)c(OCCN(CC)CC)c(I)c1 [Amiodarone]
IC50: 1.74 µM
